Test results: publication PMC4496399
No constants are given. Whether binding was seen depends on the method and setting. In cells and extracts the contact can be indirect. Some results given as binding are weak or reduced against the parent protein; the word gives no strength.

Protein sequences, listed by entry. Tags and fused reporters are not part of them. Residues count along the entry.
UniProt P16070, residues 21-742: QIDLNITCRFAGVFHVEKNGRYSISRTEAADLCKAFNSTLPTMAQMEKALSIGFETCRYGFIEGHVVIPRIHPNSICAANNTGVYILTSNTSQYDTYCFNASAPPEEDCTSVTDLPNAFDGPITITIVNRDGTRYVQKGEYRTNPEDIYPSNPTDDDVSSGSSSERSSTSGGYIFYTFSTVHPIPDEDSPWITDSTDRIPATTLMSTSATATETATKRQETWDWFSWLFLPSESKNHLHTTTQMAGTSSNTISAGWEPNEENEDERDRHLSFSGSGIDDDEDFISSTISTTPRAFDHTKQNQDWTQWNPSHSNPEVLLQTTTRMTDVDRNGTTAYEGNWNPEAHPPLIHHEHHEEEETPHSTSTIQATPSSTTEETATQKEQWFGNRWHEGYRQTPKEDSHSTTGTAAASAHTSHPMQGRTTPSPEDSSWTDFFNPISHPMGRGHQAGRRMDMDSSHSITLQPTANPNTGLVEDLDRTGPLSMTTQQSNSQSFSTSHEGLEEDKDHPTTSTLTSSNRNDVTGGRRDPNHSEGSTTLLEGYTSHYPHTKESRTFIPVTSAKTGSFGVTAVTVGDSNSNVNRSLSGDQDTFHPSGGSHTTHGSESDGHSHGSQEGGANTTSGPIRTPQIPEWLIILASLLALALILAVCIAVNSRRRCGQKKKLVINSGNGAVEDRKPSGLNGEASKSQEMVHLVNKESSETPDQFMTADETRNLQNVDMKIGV
UniProt P04629, residues 33-796: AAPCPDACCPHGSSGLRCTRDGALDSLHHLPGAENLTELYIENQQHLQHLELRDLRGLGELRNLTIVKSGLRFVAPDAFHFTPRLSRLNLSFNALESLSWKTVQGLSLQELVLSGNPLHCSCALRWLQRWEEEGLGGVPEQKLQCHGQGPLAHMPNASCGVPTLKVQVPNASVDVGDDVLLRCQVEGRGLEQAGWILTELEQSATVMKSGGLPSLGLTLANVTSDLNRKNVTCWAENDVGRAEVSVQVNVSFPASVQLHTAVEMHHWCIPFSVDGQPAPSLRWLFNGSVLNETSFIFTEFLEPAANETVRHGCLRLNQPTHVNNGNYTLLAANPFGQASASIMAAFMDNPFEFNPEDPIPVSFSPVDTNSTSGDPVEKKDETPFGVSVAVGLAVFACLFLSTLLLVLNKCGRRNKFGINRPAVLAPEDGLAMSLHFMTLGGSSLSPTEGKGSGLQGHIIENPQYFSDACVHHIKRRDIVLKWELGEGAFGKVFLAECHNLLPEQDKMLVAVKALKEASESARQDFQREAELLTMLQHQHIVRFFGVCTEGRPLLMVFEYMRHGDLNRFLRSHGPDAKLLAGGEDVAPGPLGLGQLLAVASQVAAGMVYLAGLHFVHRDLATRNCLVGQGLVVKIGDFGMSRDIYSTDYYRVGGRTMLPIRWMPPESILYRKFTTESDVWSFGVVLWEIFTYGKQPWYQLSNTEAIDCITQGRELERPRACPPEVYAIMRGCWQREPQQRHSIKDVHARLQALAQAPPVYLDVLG

Tests used:
[1] = target: CD44 antigen (human (endogenous in MDA-MB-231 and PC3)) (UniProt P16070); assay: co-IP; IP from cleared MDA-MB-231 lysates (40 mM HEPES pH 7.5, 120 mM NaCl, 1% Triton X-100, 0.1% SDS) with anti-HA or anti-CD44 and protein-G agarose, 4°C; immunoblot; cells untreated or treated with NGF (16 nM) for 5 or 30 min
[2] = target: HA-TrkA (UniProt P04629); assay: proximity ligation; in situ PLA on paraformaldehyde-fixed cells without membrane permeabilization; rabbit anti-HA or rabbit anti-TrkA and mouse anti-CD44; cells untreated or treated with NGF (16 nM) for 5 or 30 min, with DMSO or K252a (10 nM) pre-incubation
[3] = target: TrkA (endogenous, PC3 prostate cancer cells) (human (endogenous in PC3)) (UniProt P04629); assay: as above
[4] = target: HA-TrkA (UniProt P04629); assay: co-IP; IP from cleared MDA-MB-231 lysates (40 mM HEPES pH 7.5, 120 mM NaCl, 1% Triton X-100, 0.1% SDS) with anti-HA or anti-CD44 and protein-G agarose, 4°C; immunoblot; cells untreated or treated with NGF (16 nM) for 5 or 30 min
[5] = target: HA-TrkA (UniProt P04629); assay: proximity ligation; brightfield PLA on HA-TrkA MDA-MB-231 tumor xenografts (SCID mice, control group)

Row | binding [1] | binding [2] | binding [3] | binding [4] | binding [5] | Substance
1 | binds |  |  |  |  | HA-TrkA (from UniProt P04629 33-796) (receptor)
2 |  | binds | binds | binds | binds | CD44 antigen (from UniProt P16070 21-742) (receptor)
